Test results taken from patent US20200384080A1 (published 2020).
Results are given in words; binding and its absence hold for the method and conditions named. Some binding calls cover weakened binding; strength is not graded here. For some of these results: Tags and fused reporters may be left off the sequences shown. Each block holds one molecule with its values, some of them ahead of it.

Protein sequences, listed by entry. Tags and fused reporters are not part of them. Lines headed by an entry give the natural chain unless they say otherwise; changes in a name come on top. Residues count along the entry.
UniProt P22004, residues 375-513: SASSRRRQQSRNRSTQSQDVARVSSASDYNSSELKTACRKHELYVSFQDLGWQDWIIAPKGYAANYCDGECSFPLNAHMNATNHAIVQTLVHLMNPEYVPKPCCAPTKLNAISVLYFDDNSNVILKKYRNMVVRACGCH
UniProt P36896: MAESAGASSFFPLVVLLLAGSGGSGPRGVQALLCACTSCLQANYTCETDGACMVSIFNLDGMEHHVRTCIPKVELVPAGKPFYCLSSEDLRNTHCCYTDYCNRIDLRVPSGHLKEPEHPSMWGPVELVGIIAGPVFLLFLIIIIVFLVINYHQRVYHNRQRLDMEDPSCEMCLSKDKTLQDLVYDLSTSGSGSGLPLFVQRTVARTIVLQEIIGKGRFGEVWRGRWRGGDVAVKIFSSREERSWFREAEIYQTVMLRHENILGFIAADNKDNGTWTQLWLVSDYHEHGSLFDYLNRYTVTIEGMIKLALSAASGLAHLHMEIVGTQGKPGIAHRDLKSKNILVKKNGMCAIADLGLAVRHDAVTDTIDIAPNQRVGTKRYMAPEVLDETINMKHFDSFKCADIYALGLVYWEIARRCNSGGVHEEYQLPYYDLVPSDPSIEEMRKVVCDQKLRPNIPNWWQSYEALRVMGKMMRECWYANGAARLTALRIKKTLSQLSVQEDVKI
UniProt P27037: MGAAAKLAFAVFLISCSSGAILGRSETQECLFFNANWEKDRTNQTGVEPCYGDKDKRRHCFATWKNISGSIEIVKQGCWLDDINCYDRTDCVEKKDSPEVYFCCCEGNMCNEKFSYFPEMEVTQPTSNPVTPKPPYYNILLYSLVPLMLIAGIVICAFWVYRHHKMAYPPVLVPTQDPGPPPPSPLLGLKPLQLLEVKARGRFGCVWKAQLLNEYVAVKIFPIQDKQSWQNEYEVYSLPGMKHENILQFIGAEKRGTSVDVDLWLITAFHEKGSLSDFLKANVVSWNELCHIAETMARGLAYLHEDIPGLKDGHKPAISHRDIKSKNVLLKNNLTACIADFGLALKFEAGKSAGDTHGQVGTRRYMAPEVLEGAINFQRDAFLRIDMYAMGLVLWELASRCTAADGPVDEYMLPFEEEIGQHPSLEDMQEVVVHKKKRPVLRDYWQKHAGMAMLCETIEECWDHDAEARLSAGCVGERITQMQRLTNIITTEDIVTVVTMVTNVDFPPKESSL

Legend:
[1] = target: T1, BMP9 (UniProt Q9UK05); test: Biacore, as recalled in the reporter assay paragraph
T1 sequence (looked up): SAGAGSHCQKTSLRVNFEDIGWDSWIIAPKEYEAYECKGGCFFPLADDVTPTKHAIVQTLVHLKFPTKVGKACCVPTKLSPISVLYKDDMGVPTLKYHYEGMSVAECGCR

[2] = target: T2, activin B (UniProt P09529); test: as above
T2 sequence (looked up): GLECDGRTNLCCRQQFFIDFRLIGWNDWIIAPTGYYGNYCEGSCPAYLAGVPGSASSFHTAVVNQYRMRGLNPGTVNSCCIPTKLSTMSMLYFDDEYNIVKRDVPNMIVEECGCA

[3] = target: BMP6 (UniProt P22004); test: Biacore, receptor captured by anti-Fc
[4] = target: T1, BMP9; test: Biacore, receptor captured by anti-Fc
[5] = target: T2, activin B; test: Biacore, receptor captured by anti-Fc
[6] = target: T3, GDF3 (UniProt Q9NR23); test: Biacore, receptor captured by anti-Fc
T3 sequence (looked up): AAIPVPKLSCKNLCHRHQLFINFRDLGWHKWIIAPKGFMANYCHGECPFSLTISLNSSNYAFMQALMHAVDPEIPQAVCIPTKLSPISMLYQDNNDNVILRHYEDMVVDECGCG

[7] = target: BMP6 (UniProt P22004); test: Biacore, legend of FIG. 19
[8] = target: T1, BMP9; test: Biacore, legend of FIG. 19
[9] = target: T2, activin B; test: Biacore, legend of FIG. 19
[10] = target: T3, GDF3; test: Biacore, legend of FIG. 19
[11] = target: T1, BMP9; test: Biacore, receptor captured by anti-Fc; footnote: indeterminate due to transient nature of interaction
[12] = target: T2, activin B; test: similar Biacore binding assay
[13] = target: T4, GDF11 (UniProt O95390 299-407); test: Biacore, as recalled in the reporter assay paragraph
T4 sequence (looked up): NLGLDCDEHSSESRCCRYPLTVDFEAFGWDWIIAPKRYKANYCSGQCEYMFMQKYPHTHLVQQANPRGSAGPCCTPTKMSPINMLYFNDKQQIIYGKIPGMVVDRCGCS

[14] = target: T5, GDF8 (UniProt O14793); test: as above
T5 sequence (looked up): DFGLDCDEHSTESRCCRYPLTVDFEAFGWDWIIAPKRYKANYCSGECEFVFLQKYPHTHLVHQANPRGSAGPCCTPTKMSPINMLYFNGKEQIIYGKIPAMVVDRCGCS

[15] = target: T5, GDF8; test: Biacore, receptor captured by anti-Fc
[16] = target: T4, GDF11; test: Biacore, receptor captured by anti-Fc
Experimental: A Biacore™-based binding assay was used to compare ligand binding selectivity of the ALK4-Fc:ActRIIB-Fc heterodimeric complex described above with that of ActRIIB-Fc and ALK4-Fc homodimer complexes. The ALK4-Fc:ActRIIB-Fc heterodimer, ActRIIB-Fc homodimer, and ALK4-Fc homodimer were independently captured onto the system using an anti-Fc antibody. Ligands were injected and allowed to flow over the captured receptor protein. Results are summarized in the table below, in which ligand off-rates (kd) most indicative of effective ligand traps are denoted in bold font.

[17] = target: T4, GDF11; test: Biacore, legend of FIG. 19
[18] = target: T5, GDF8; test: Biacore, legend of FIG. 19

binding [1]: binds
binding [2]: binds
binding [3]: binds
binding [4]: binds
binding [5]: binds
binding [6]: binds
binding [7]: binds
binding [8]: binds
binding [9]: binds
binding [10]: binds
binding [11]: binds
Molecule: ALK4-Fc:ActRIIB-Fc heterodimer (from UniProt P36896 24-126; Q13705 20-134) (Fc fusion)

binding [12]: binds
Molecule: ActRIIA-mFc (from UniProt P27037 21-135) (Fc fusion)

binding [13]: binds
binding [14]: binds
binding [2]: binds
binding [15]: binds
binding [3]: binds
binding [4]: binds
binding [16]: binds
binding [17]: binds
binding [18]: binds
binding [7]: binds
B1: ActRIIB-Fc homodimer (Fc fusion, not shown: a dimerising Fc or GST)
chain: GRGEAETRECIYYNANWELERTNQSGLERCEGEQDKRLHCYASWRNSSGTIELVKKGCWLDDFNCYDRQECVATEENPQVYFCCCEGNFCNERFTHLPEAGGPEVTYEPPPTAPT
